A short description of this assay: qHTS Assay for Modulators of Lamin A Splicing. To be noted: HeLa LMNA splicing GFP/RFP minigene ratio, 48 h. The procedure, abridged: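 Read-out is the ratio of GFP to DsRed2 object intensity, acquired by 488 nm laser-scanning cytometry on HeLa lamin A-EGFP minigene reporter cells. Compound incubation 48 hrs at 37 °C in Opti-MEM with 2% FBS; DMSO 0.5% final.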
Setting [1] is: measured here: GFP splicing reporter channel.
Where [2] appears, read: measured here: RFP viability control channel.

The other results are listed elsewhere or left out. Further columns of the screen follow, without active or inactive calls. Most of these compounds were active or inconclusive in the main read-out, so they are no random draw. Words in brackets tell the shape of the fitted curve; partial curves, single points and poor fits give uncertain potencies.

The AC50 is the concentration at which the activity in the assay is half-maximal.

As for `Cc1ccccc1OCC(O)Cn1c(Br)nc2c1c(=O)n(C)c(=O)n2C` (configuration not stated), the AC50 reads like this: under setting [1], 35.5 µM [rising, single point]; under setting [2], 35.5 µM [rising, single point].
Turning to `CCN1CCN(CCCN(Cc2ccco2)C(=S)Nc2ccc(Cl)c(C)c2)CC1`, under setting [1], the AC50 is 10 µM [falling, partial curve, poor fit].
For the compound `COc1ccc(-c2csc(NC(=O)C3=NN(c4ccccc4)C(=O)CC3)n2)cc1`, the AC50 by setting is: under setting [1], 3.98 µM [rising, full curve, poor fit]; under setting [2], 5.62 µM [rising, partial curve, poor fit].
With `Cc1nc2ccc(S(=O)(=O)N(CC(=O)Nc3ccc(F)cc3)Cc3ccccc3)cc2s1`, the AC50 under setting [2] was 0.355 µM [falling, partial curve, poor fit].
The same measure, in the same setting: then `CCc1ccc(-c2csc(NC(=O)C3=NN(c4ccccc4)C(=O)CC3)n2)cc1`, with 2.82 µM [rising, full curve].
Take `Cc1ccc(S(=O)(=O)N2CCOCC2)cc1C(=O)NCc1cn2ccsc2n1`: the AC50 under setting [1] is 3.98 µM [rising, full curve, poor fit].
In the case of `CC(C)(C)OC(=O)N1CCC(c2c(C(=O)N3CCN(C(=O)c4ccco4)CC3)cnn2-c2ccc(F)cc2F)CC1`, the AC50 under setting [2] was 0.0112 µM [falling, full curve].
With `Cc1ccc2nc(SC(C)C(=O)NCc3ccco3)[nH]c2c1` (configuration not stated), the AC50 under setting [1] was 4.47 µM [rising, partial curve].
As for `COc1cccc(/C=C2\SC(=S)N(c3cccnc3)C2=O)c1OC`, the AC50 under setting [1] was 0.398 µM [rising, full curve, poor fit].
Turning to `Cc1ccc(NC2=C(Cl)C(=O)OC2OC(=O)c2ccco2)cc1` (configuration not stated), the AC50 under setting [2] was 12.6 µM [rising, single point].
Still for that read-out and setting: in the case of `O=C(c1c[nH]c(C(=O)N2CCN(Cc3ccccc3)CC2)c1)C1CCCCC1` it was 0.0794 µM [falling, full curve, poor fit]; in that of `COc1ccc2[nH]cc(CCNc3nc(-c4ccccc4CN(C)C)nc4ccccc34)c2c1`, 12.6 µM [rising, partial curve].
For `COc1ccccc1CNC(=O)c1ccc(Cn2c(SCc3ccccc3)nc3cccnc32)cc1`, the AC50 is, setting by setting: under setting [1], 0.0112 µM [falling, full curve, poor fit]; under setting [2], 0.01 µM [falling, full curve, poor fit].
Take `CC1CN(S(=O)(=O)c2cccc(-c3csc(-c4ccccc4)n3)c2)CC(C)O1` (configuration not stated): the AC50 under setting [1] was 31.6 µM [rising, single point] and the AC50 under setting [2] was 31.6 µM [rising, single point].
Consider `Cc1nn(-c2ccccc2)c(C)c1NC(=O)COc1ccc(F)cc1Cl`, for which the AC50 by setting is: under setting [1], 14.1 µM [rising, partial curve]; under setting [2], 14.1 µM [rising, partial curve].
In the case of `O=C(/C=C(\c1ccccc1)n1cncn1)c1ccccc1`, under setting [1], the AC50 was 3.98 µM [rising, partial curve].
Consider `COc1ccc(C(=O)/C=C/C(=O)N(CC(=O)NC2CCCCC2)Cc2ccc(F)cc2)c(O)c1`, for which the AC50 by setting is: under setting [1], 6.31 µM [falling, full curve]; under setting [2], 5.62 µM [falling, full curve].
As to `O=C(CC1SC(=Nc2cccc3ccccc23)N(Cc2ccccn2)C1=O)Nc1ccccc1Br` (configuration not stated), the AC50 was 3.16 µM [rising, full curve] under setting [1] and 3.55 µM [rising, partial curve] under setting [2].
In the case of `CSc1nnc([C@@H]2CCCN2C(=O)OC(C)(C)C)o1`, the AC50 under setting [1] is 0.0447 µM [rising, full curve, poor fit].
Same read-out and setting: then `CCNc1ncc2nc(-c3cn(C)c4ccccc34)c(=O)n(CCC#N)c2n1`, with 3.55 µM [falling, partial curve, poor fit].
As for `CCOCC(=O)Nc1ccc(S(=O)(=O)NCCc2ccccc2)cc1`, the AC50 reads like this: under setting [1], 17.8 µM [rising, partial curve]; under setting [2], 15.8 µM [rising, partial curve].
`C[C@@]1(C2CCCC2)Cc2cc(OCC(=O)O)c(Cl)c(Cl)c2C1=O`: under setting [1], the AC50 is 0.251 µM [rising, full curve, poor fit].
Consider `COc1ccc(-n2c(C)nc3c(cnn3-c3ccc(Cl)cc3)c2=O)cc1`, for which the concentration at half-maximal activity (AC50) under setting [1] was 8.91 µM [rising, partial curve] and the AC50 under setting [2] was 3.16 µM [rising, full curve].
Take `Cc1cc(Cl)ccc1OCC(=O)N1CCN(c2ncccn2)CC1`: under setting [2], the AC50 was 0.141 µM [rising, full curve, poor fit].
As for `COc1ccc(C2CC(c3ccc(Br)cc3)=NN2C(=O)CSC2=NCCS2)cc1` (configuration not stated), the AC50 under setting [2] is 12.6 µM [rising, single point].
As to `O=C(CCOc1ccccc1)N(Cc1cccnc1)c1nc2c(F)cc(F)cc2s1`, the AC50 under setting [1] was 15.8 µM [falling, single point] and the AC50 under setting [2] is 35.5 µM [falling, single point].
As to `O=C(Nc1cc(C(F)(F)F)ccc1N1CCCCC1)c1cccc([N+](=O)[O-])c1`, under setting [2], the AC50 was 12.6 µM [rising, single point].
For the compound `Cc1ccc(C(=O)OCC(=O)NC2CCCCC2)s1`, the AC50 is, setting by setting: under setting [1], 10 µM [falling, single point]; under setting [2], 10 µM [falling, partial curve].
`Cc1cc(C(=O)COc2ccc(-c3nnco3)cc2)c(C)n1Cc1ccccc1`: under setting [2], the AC50 was 14.1 µM [rising, partial curve].
`O=C(c1ccc([N+](=O)[O-])cc1[N+](=O)[O-])N1CCCC1`: the AC50 under setting [1] was 0.00316 µM [rising, full curve, poor fit].
Same read-out and setting: then `Cc1c(Cl)c([N+](=O)[O-])nn1Cc1ccc(C(=O)N/N=C\c2cc(Cl)ccc2O)o1`, with 5.62 µM [falling, single point].
As for `COc1ccccc1-c1cncnc1-n1ccnc1`, the AC50 under setting [2] is 25.1 µM [falling, partial curve, poor fit].
Consider `O=C(/C=C/c1ccc(-c2ccccc2)o1)c1ccccc1`, for which the AC50 by setting is: under setting [1], 12.6 µM [falling, partial curve]; under setting [2], 28.2 µM [falling, single point].
With `COc1ccc(C(=O)NCC(=O)OCC(=O)c2ccc3c(c2)NC(=O)CO3)cc1OC`, the AC50 under setting [2] was 0.00447 µM [falling, full curve, poor fit].
`COc1ccc2c(CN3CCN(S(=O)(=O)c4cccs4)CC3)cc(=O)oc2c1`: under setting [2], the AC50 is 12.6 µM [rising, partial curve].
Regarding `COc1ccc(-c2cnn3c(N)c(S(=O)(=O)C(C)(C)C)cnc23)cc1`, the AC50 is 35.5 µM [falling, single point] under setting [1] and 22.4 µM [falling, single point] under setting [2].
In the case of `NNC(=O)COc1ccc(C2SCCS2)cc1`, the AC50 under setting [2] is 2.82 µM [falling, partial curve, poor fit].
Turning to `CCOc1ccc(NC(=O)C2CCN(C(=O)N3CC(C)Oc4ccc(Cl)cc43)CC2)cc1` (configuration not stated), the AC50 runs as follows: under setting [1], 15.8 µM [rising, single point]; under setting [2], 35.5 µM [rising, single point].
As to `COc1ccc(S(=O)(=O)N2CCOCC2)cc1Br`, the AC50 was 0.0251 µM [falling, full curve, poor fit] under setting [1] and 7.08 µM [falling, partial curve, poor fit] under setting [2].
Consider `Cc1ccc(-n2cnc3scc(-c4cccs4)c3c2=O)cc1`, for which the AC50 under setting [2] is 11.2 µM [rising, single point].
Still for that read-out and setting: then `Cc1ncc(CN2CCCC(CCC(=O)NCc3ccccc3F)C2)s1` (configuration not stated), with 2 µM [falling, full curve, poor fit]; and `CCOc1cc(-c2c(C#N)c(N)nc3c2CCCC3)ccc1O`, with 15.8 µM [rising, partial curve, poor fit].
As for `CC(C)CC(=O)Nc1nnc(S(=O)(=O)N(CC(C)C)c2ccccc2)s1`, the AC50 under setting [1] was 1.26 µM [rising, full curve].
As to `CCN(CC)C(=O)CN1C(=O)C2CC=C(Cl)CC2C1=O` (configuration not stated), the AC50 under setting [2] is 12.6 µM [falling, partial curve, poor fit].
For the compound `CC(C)CN(C(=O)CN1CCCCCC1)c1c(N)n(CC(C)C)c(=O)[nH]c1=O`, the AC50 under setting [1] was 1.12 µM [rising, full curve, poor fit].
In the case of `O=S(=O)(Nc1ccc(O)c(Sc2nc3ccccc3s2)c1)c1ccc(Cl)cc1`, the AC50 runs as follows: under setting [1], 11.2 µM [rising, single point]; under setting [2], 15.8 µM [rising, single point].
Consider `O=C(CN1CCCCC1)Nc1ccc(NC(=O)c2ccccc2Cl)cc1Cl`, for which the AC50 under setting [2] was 0.178 µM [rising, full curve, poor fit].
Still for that read-out and setting: then `CCOC(=O)c1ccccc1NC(=O)c1ccccc1SC`, with 28.2 µM [rising, single point]; and `Cc1ccc(OCC(=O)NC2CCCc3ccccc32)c(C)c1` (configuration not stated), with 25.1 µM [rising, single point]; and `O=S1(=O)CC2N=C(N(Cc3c(F)cccc3Cl)c3ccccc3F)SC2C1` (configuration not stated), with 8.91 µM [rising, partial curve].
On the same count and under the same terms, in the case of `CC(C)C(=O)OCC(=O)Nc1ccc(N=Nc2ccccc2)cc1` it was 35.5 µM [rising, single point].

Source of the values: PubChem BioAssay AID1487 (National Center for Advancing Translational Sciences (NCATS), 2009).
